{"source": "patent US20040029208A1", "about": "“Assay method and kit for testing biological material for exposure to stress using biomarkers” (priority 2000, published 2004)", "assay_in_all_cases": "TLC plant biomarker pattern after herbicide spraying (greenhouse)", "type_in_all_cases": "in vivo", "key": {"[1]": {"test_system": "Plantágo lanceoláta", "procedure": "(§1) The experiments were performed in the green-house at the National Environmental Research Institute, Silkeborg, Denmark. All the seeds needed light to germinate, and were sown at the soil surface in individual 11 cm pots. The soil used during the experiments contained: (SM Growing Mould (Growing medium by special soil (sphagnum) added clay granulate), 0-30 mm; grade of turnover 55-75; added per m^3: 3 kg lime (white chalk), 1.5 kg dolit chalk, 40 kg clay granulate; Fertilizer added granulate: NO3-N: 55.0 g; NH4-N: 65.0 g; P: 106.6 g; K: 224.0 g; Mg: 22 g; Micro nutrients added in chelate form, Mo in uorganic form: B-Boron: 1 g; Cu-copper: 6 g; Mn-Manganese: 3 g; Zinc-Zn: 3 g: Fe-iron: 6 g; Mo- molybdenum: 1.4 g).\n(§2) During the experiments plants were watered from below, and the temperature in the green-house was maintained between 15° C. and 25° C. with variations due to external weather, and the photoperiod was 16th daylight. The green-house is divided into different units, which allowed for the separate maintenance of the control plants from the sprayed plants to avoid undesirable effects due to vapour drift.\nGlyphosate (Roundup Bio (360 g L^−1) was supplied by Monsanto Denmark A/S. Recommended field dose=1,44 kg a.i. ha^−1. In all the experiments, an automatic sprayer (designed in Denmark by Jens Kristensen 1994) was used where the herbicide application is achieved by moving boom equipment with two ordinary hydraulic flat fan nozzles (Hardi 4110-16). Two pots per spray event were placed in the middle of the spray chamber at 50 cm distance from the nozzle, delivering 200 L of water per-hectare with a desired herbicide concentration (working pressure 2 bars; speed of spray boom=4.7 km h^−1). The spraying was performed starting with the lowest concentration first, progressing towards the highest concentration. Between each herbicide, the sprayer was thoroughly rinsed several times with water. The control plants were sprayed with water.\nThe fresh plant material was pressed using a hand press. The extract was immediately centrifuged. (3000 rpm) for 10 minutes. The supernatant was used for analysis. The extracts were kept cool or right above 0° C. during the test to avoid decomposition of biomarkers. […]\n(§3) The two extracts (freshtfresh ethanol) were applicated immediately on a TLC plate (10 μl on both TLC-Plate types (see below) using cool air-drying. The 75% ethanolic extract was applicated 10 μl on Silica-gel TLC-plates and 5 μl on Cellulose TLC-plates (see below). The fresh/fresh ethanolic extractsare recommended to perform if fresh plant material are to be analysed (field-test). The freeze-dried or frozen plant material extraction Is recommended if the analysis are performed in the laboratory. […]"}, "[2]": {"test_system": "Centauréa cýanus"}, "[3]": {"test_system": "Lólium perénne"}, "[4]": {"test_system": "Anagallis arvensis", "procedure": "as §1\nas §2, with “drift. […]” for “drift.”\nas §3"}}, "note": "Several values for one entry are separate records, joined by “and”; a condition that tells them apart may be missing. Equal values may be shown once. At least one structure is not confirmed: it was looked up by name or label, or the drawing left a doubt.", "data": [{"smiles": "COC(=O)c1ccccc1S(=O)(=O)NC(=O)Nc1nc(C)nc(OC)n1", "note": "[Metsulfuron methyl]", "values": [{"measurement": "Days after exposure (biomarker present)", "setting": "[1]; TLC 1 (non-specific compounds)", "value": "4, 8, 16, 32 days"}, {"measurement": "Days after exposure (biomarker present)", "setting": "[1]; TLC 2 (phenolic compounds)", "value": "4, 8, 16, 32 days and 4, 8, 16 days"}, {"measurement": "Days after exposure (biomarker present)", "setting": "[1]; TLC 6 (lipids and terpens)", "value": "4, 8, 14, 16 days"}, {"measurement": "Days after exposure (biomarker present)", "setting": "[1]; TLC 7 (non-specific compounds)", "value": "8, 16, 32 days"}, {"measurement": "Days after exposure (biomarker present)", "setting": "[2]; TLC 6 (lipids and terpens)", "value": "16, 32 days"}, {"measurement": "Days after exposure (biomarker present)", "setting": "[2]; TLC 7 (non-specific compounds)", "value": "14, 16, 32 days"}, {"measurement": "Days after exposure (biomarker present)", "setting": "[3]; TLC 1 (non-specific compounds)", "value": "4, 8, 16, 32 days and 8, 16 days"}, {"measurement": "Days after exposure (biomarker present)", "setting": "[3]; TLC 6 (lipids and terpens)", "value": "4, 8, 16, 32 days and 4, 16, 32 days"}, {"measurement": "Days after exposure (biomarker present)", "setting": "[3]; TLC 7 (non-specific compounds)", "value": "8, 16, 32 days and 8, 16 days"}, {"measurement": "Days after exposure (biomarker present)", "setting": "[3]; TLC 4d (amino acids)", "value": "4, 8, 16, 32 days and 8, 16 days and 8, 16, 32 days"}, {"measurement": "Days after exposure (biomarker present)", "setting": "[4]; TLC 1 (non-specific compounds)", "value": "8, 14, 16, 32 days and 4, 8, 32 days and 8, 16, 32 days"}, {"measurement": "Days after exposure (biomarker present)", "setting": "[4]; TLC 2 (phenolic compounds)", "value": "8, 16 days and 8, 16, 32 days and 16, 32 days"}, {"measurement": "Days after exposure (biomarker present)", "setting": "[4]; TLC 7 (non-specific compounds)", "value": "8, 16 days and 8, 16, 32 days"}]}]}
